Measured values: PubChem BioAssay AID504444 (National Center for Advancing Translational Sciences (NCATS), 2011)
Screen size: about 360,000 compounds; about 7,500 (2.1%) were called active. This list was built around the results that the source calls inconclusive (neither active nor inactive); the mix of calls is not that of the screen. Calls come from the whole dose curve; as a rule, active = well fitted inhibition curve with a large enough effect; inconclusive = small, poorly fitted or top-dose-only effect, or effect the other way; inactive = flat fitted curve, though single readings scatter. A potency beside an inconclusive call is a rough fit, not a confirmed value.

Assay: Nrf2 qHTS screen for inhibitors; note: nearly all actives have a fitted effect of over 60% in size
Conditions: A549 ARE-Fluc reporter, luciferase luminescence, 18-24 h; activity change, negative = inhibition: at 46 µM (top of the series)
Summary of the method: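 Nrf2 activity is the BugLite luminescence, read 15 min after reagent at room temperature, following CellTiter-Fluor cytotoxicity readout (30 min, 37C). Compound titrations were applied for 18-24 h to 5000 A549 ARE_Fluc cells/well in 5% FBS OPTI-MEM.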
% is set by controls: 0 for no effect and ±100 for the full control effect; potency is the fitted concentration of half-maximal effect.

SMILES	Potency	activity change, negative = inhibition
COc1ccc(CNC(=O)COCc2cc(-c3ccc4c(c3)OCO4)on2)cc1	inconclusive: 10.3 µM [activator, partial curve, poor fit]	
CCc1cccc(C)c1NC(=O)c1ccc2c(c1)CCN2S(=O)(=O)c1ccc(Cl)cc1	inconclusive: 0.58 µM [falling, partial curve, poor fit]	
CC1CCN(C(=O)CSc2nnc(-c3cc4ccccc4cc3O)n2Cc2ccco2)CC1	inconclusive: 23.1 µM [falling, partial curve, poor fit]	
COC(=O)c1[nH]c2cc(OC)ccc2c1NC(=O)CN1CCN(c2cccc(C)c2)C(C)C1 (centres undefined)	inconclusive: 14.6 µM [falling, single point]	
CCN(CC)C(=O)CC(c1ccc(OC)cc1)c1c(O)cc(OC)cc1OC (centres undefined)	inactive	
O=C(CCCc1nc2ccccc2s1)Nc1ccccc1	inconclusive: 25.9 µM [activator, partial curve, poor fit]	
CCCCC(=O)Nc1nnc(S(=O)(=O)N(C)Cc2ccc(Cl)cc2)s1	inconclusive: 16.4 µM [activator, partial curve, poor fit]	
Cc1csc(SCC(=O)Nc2cccc3nsnc23)n1	inconclusive: 8.2 µM [falling, single point]	
CCNc1ccc(Br)cc(C(=O)/C=C/c2ccc(Cl)cc2)c1=O	inconclusive: 29.1 µM [falling, single point]	
C=CCOC(=O)c1[nH]c2c(c1C)C(=O)CC(c1ccco1)C2 (centres undefined)	inconclusive: 29.1 µM [falling, single point]	
COc1ccccc1OCC(=O)N(Cc1ccco1)Cc1ccccc1F		inactive: -2.11%
O=C(NC1=NCCS1)c1ccc(Cl)s1	inconclusive: 2.06 µM [activator, full curve, poor fit]	
CN1/C(=C\C(=O)Nc2cccc(Cl)c2)C(C)(C)c2ccccc21	inconclusive: 29.1 µM [falling, single point]	
COC(=O)c1nn(-c2ccc(-c3ccccc3)cc2)cc1O	inconclusive: 29.1 µM [activator, single point]	
Cc1ccc(C(=O)N/C(=C/c2ccc(-c3cc(C(F)(F)F)ccc3Cl)o2)C(=O)NCc2cccnc2)cc1	inconclusive: 20.6 µM [falling, partial curve, poor fit]	
COc1ccc(O)c(/C=N/N2CCCCC2)c1	inconclusive: 16.4 µM [activator, single point]	
Cc1ccc(NC(=O)O/N=C2\CCCCC2c2ccc([N+](=O)[O-])cc2[N+](=O)[O-])cc1 (centres undefined)		inactive: -10.9%
CCc1cc2c(=O)n(CCC(C)C)c(=S)[nH]c2s1	inconclusive: 18.4 µM [falling, single point]	
CCOC(=O)c1c(-c2cccc([N+](=O)[O-])c2)csc1NC(=O)C1CCCCC1	inconclusive: 18.4 µM [falling, single point]	
Cc1ccc(/C=N/NC(=O)c2cc(-c3cccnc3)nc3ccccc23)cc1	inconclusive: 18.4 µM [activator, single point]	
O=[N+]([O-])c1ccccc1CN1CCN(S(=O)(=O)c2ccccc2)CC1	active: 16.4 µM	
COc1ccc(NS(=O)(=O)c2cccc(C(=O)NCc3ccccc3CN3CCCC3)c2)cc1	inconclusive: 14.6 µM [falling, partial curve, poor fit]	

SMILES	Potency	activity change, negative = inhibition
N#C/C(=C\C=C\c1ccccc1[N+](=O)[O-])C(=O)NCc1ccccc1	inconclusive: 23.1 µM [falling, single point]	
Cc1ccc(NC(=O)c2cc(C(=O)c3cc(Cl)ccc3O)cn(-c3ccc(C)cc3)c2=O)cc1		inactive: -3.65%
O=C(Nc1ccc2c(c1)OCCO2)c1cccc(S(=O)(=O)N2CCOCC2)c1	inconclusive: 8.2 µM [activator, partial curve]	
Cc1ccccc1C1=C/C(=C(\SS/C(C(=O)c2ccc(OCC(=O)O)c(Cl)c2Cl)=C2\C=C(c3ccccc3C)SS2)C(=O)c2ccc(OCC(=O)O)c(Cl)c2Cl)SS1	inconclusive: 14.6 µM [falling, partial curve, poor fit]	
CC(C)Nc1nc(-c2ccccc2)nnc1-c1ccccc1	inconclusive: 29.1 µM [falling, single point]	
CSc1c(C#N)c(N)nc2sc(C(=O)c3ccccc3)c(N)c12		inactive: -6.47%
Cc1ccc(NC(=O)CN2CCC(NC(=O)Cc3ccccc3)CC2)c(C)c1	inconclusive: 18.4 µM [falling, partial curve, poor fit]	
COc1ccc(-c2[nH]c(-c3ccc(O)cc3)nc2-c2ccccc2)cc1		inactive: 9.04%
O=C(COc1ccccc1)Nc1nc2c(s1)CCCC2	inconclusive: 16.4 µM [activator, partial curve]	
O=C(CN1CCN(c2ccccc2O)CC1)Nc1ccc([N+](=O)[O-])cc1Br	inconclusive: 16.4 µM [falling, partial curve, poor fit]	
CCC(=O)Nc1cccc(NC(=S)NC(=O)c2cc3ccccc3o2)c1	inconclusive: 2.31 µM [activator, full curve]	
CCOc1ccc(OCC)c(NC(=O)CN2CCN(c3cc(C)ccc3C)CC2)c1	inconclusive: 32.6 µM [falling, single point]	
Cc1nn(C(C)(C)C)c(OC(=O)c2ccc3c(c2)OCO3)c1S(=O)(=O)c1ccccc1	inconclusive: 29.1 µM [falling, single point]	
CCc1ccc(N2C(=O)C3NN=C(C(=O)OCc4ccccc4)C3C2=O)cc1 (centres undefined)		inactive: -8.13%
CCOC(=O)c1c(NC(=O)CSc2nnc(-c3ccccc3)n2CC)sc(C(C)=O)c1C	inconclusive: 2.06 µM [falling, partial curve, poor fit]	
COc1ccc(N2CCN(S(=O)(=O)c3ccc(CC(C)C)cc3)CC2)cc1		inactive: -15.1%
COC(=O)Cn1c(SCc2ccccc2)nc2ccccc21	inconclusive: 4.61 µM [activator, full curve, poor fit]	
O=C(N/N=C/c1ccco1)c1ccc2nc[nH]c2c1		inactive: -5.02%
O=C(CCN=C1NS(=O)(=O)c2ccccc21)NCc1ccccc1F		inactive: 17%
Brc1ccc2oc(-c3ccn[nH]3)cc2c1	inconclusive: 16.4 µM [activator, partial curve]	
COc1ccc(NC(=O)Nc2ccc3c(c2)N(C)C(=O)CS3)cc1OC	inconclusive: 16.4 µM [falling, single point]	
COC(=O)c1cc(C(=O)OCC(=O)N(C)C2CCS(=O)(=O)C2)cc([N+](=O)[O-])c1 (centres undefined)		inactive: 5.42%

A few values from the results shown:
CC(C)Nc1nc(-c2ccccc2)nnc1-c1ccccc1 | Potency: inconclusive: 29.1 µM [falling, single point]
Cc1nn(C(C)(C)C)c(OC(=O)c2ccc3c(c2)OCO3)c1S(=O)(=O)c1ccccc1 | Potency: inconclusive: 29.1 µM [falling, single point]
Brc1ccc2oc(-c3ccn[nH]3)cc2c1 | Potency: inconclusive: 16.4 µM [activator, partial curve]
O=C(CCN=C1NS(=O)(=O)c2ccccc21)NCc1ccccc1F | activity change, negative = inhibition: inactive: 17%
CCOc1ccc(OCC)c(NC(=O)CN2CCN(c3cc(C)ccc3C)CC2)c1 | Potency: inconclusive: 32.6 µM [falling, single point]

More compounds follow:

SMILES	Potency	activity change, negative = inhibition
O=[N+]([O-])c1ccc(OCCCOc2cccc3cccnc23)cc1		inactive: -49%
CC(C)[C@H](NC(=O)c1ccco1)C(=O)OCC(=O)N(C)c1ccccc1	inconclusive: 23.1 µM [activator, partial curve]	
COc1ccc(CNC(=O)c2ccc3c(c2)N(Cc2ccc(C)cc2)CCS3)cc1	inconclusive: 2.91 µM [falling, full curve, poor fit]	
CCS(=O)(=O)c1ccc2oc(Nc3ccccc3C)nc2c1	inconclusive: 1.3 µM [activator, full curve]	
O=S(=O)(c1ccc2c(c1)OCCO2)N1CCN(S(=O)(=O)c2cc(F)ccc2F)CC1		inactive: 4.79%
COc1ccc(-c2noc(C3CCCN(C(=O)c4ccc(C)cc4)C3)n2)cc1 (centres undefined)	inconclusive: 18.4 µM [falling, single point]	
COc1ccc(/C=C/C(=O)Nc2cc(S(=O)(=O)N3CCOCC3)ccc2OC)cc1	inconclusive: 11.6 µM [falling, partial curve, poor fit]	
Cc1cccc(NC(=O)COC(=O)c2cccc3c2C(=O)c2ccccc2C3=O)c1C	active: 14.6 µM	
Nc1c(C(=O)Nc2ccc(S(=O)(=O)N3CCCC3)cc2)sc2nc3ccc(OC(F)(F)F)cc3cc12	inconclusive: 25.9 µM [falling, single point]	
COc1ccc(CNS(=O)(=O)NCc2ccc(C)cc2)cc1OC	inconclusive: 29.1 µM [falling, single point]	
Cc1ccc(Cn2ncc3c(N4CCN(Cc5ccc(Cl)cc5)CC4)ncnc32)cc1	active: 8.2 µM	
COc1ccnc(Oc2ccccc2)c1C(=O)N/C=N/OCc1ccc(F)cc1Cl	inconclusive: 18.4 µM [falling, single point]	
CCOC(=O)c1sc(NC(=O)c2ccc(OC(C)=O)cc2)nc1C	inconclusive: 6.51 µM [activator, single point]	
CC(=O)OC1c2c(ccc3ccc(=O)oc23)OC(C)(C)C1OC(=O)CC(C)C (centres undefined)		inactive: -18.2%
O=C(CN1CCN(C(=O)C2CCCO2)CC1)Nc1cc(C(F)(F)F)ccc1Cl (centres undefined)	inconclusive: 16.4 µM [falling, single point]	
CCCn1c(SCC(=O)Nc2ccccc2N2CCCCC2)nc2c1c(=O)n(C)c(=O)n2C	inconclusive: 18.4 µM [falling, partial curve, poor fit]	
Cc1ccc2nsnc2c1S(=O)(=O)N(Cc1ccco1)Cc1cc2ccc(C)c(C)c2[nH]c1=O	inconclusive: 6.51 µM [activator, single point]	
O=c1c2c3c(sc2nc2n1CCCCC2)CCCC3	inconclusive: 6.51 µM [activator, partial curve]	
CCOC(=O)c1ccc(S(=O)(=O)Nc2nc3cc(S(=O)(=O)NC4=NCCCCC4)ccc3s2)cc1	inconclusive: 23.1 µM [falling, single point]	
CN1CCCCc2c1nc1ccccc1c2N (tested in a mixture with another compound)		inactive: 20.2%
